Results published in the supplement of paper PMC3334620.
Over roughly 33,000 sequences, “E-score (-0.5 to 0.5)” has its median near -8e-05; the highest 2% begin near 0.23. The list shows a part of the results.

These sequences were tested against T1, Nrg2 (UniProt P38082) (assay: PBM E-score (8-mer binding enrichment) (E-score (-0.5 to 0.5)); higher = stronger / more preferred TF binding). Settings: protein concentration: 100 nM; construct: GST-full length.
T1 sequence: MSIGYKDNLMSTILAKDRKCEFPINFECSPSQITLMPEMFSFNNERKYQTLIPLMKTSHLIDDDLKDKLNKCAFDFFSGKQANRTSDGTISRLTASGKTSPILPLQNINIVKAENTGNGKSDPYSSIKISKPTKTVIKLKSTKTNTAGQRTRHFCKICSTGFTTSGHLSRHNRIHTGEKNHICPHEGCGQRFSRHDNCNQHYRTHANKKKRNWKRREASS
Outline: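 Masliner-normalised scans of fluorescent anti-GST signal were the basis for scoring. That signal came from GST-tagged yeast transcription factors applied at about 100-200 nM to double-stranded universal all-10-mer Agilent arrays on fresh or once-stripped slides. Each ungapped eight-base word, pooled with its reverse complement, received an E-score from the Universal PBM Analysis Suite.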

Sequence	PBM E-score
CAGTCATC	-0.306
CGTACCGA	-0.105
CCTTTCTC	-0.113
CTGCATCC	0.0188
ACAAACAA	0.126
ATATATTC	0.131
CCCCCATC	-0.319
CCTAATTA	0.00405
AATCCGGC	-0.12
GTCCTTAA	0.123
CGTAATAG	-0.00104
TAGGTCAA	0.055
ATAGTCTA	-0.136
TCCGTCCA	0.0419
GCGGTTAC	0.112
CAAGTTTA	0.0601
GATCGAAC	-0.0425
CCCAGTGC	0.037
GAGCTTCA	0.0629
AGTTTCTG	0.175
GTTTTGCA	0.11
CGAACGAA	0.138
AGCTCTCA	0.12
CTAAGCAA	-0.172
AAGCTCTG	-0.126

Sequence	PBM E-score
GTTTAGTA	0.147
ACGAATTG	0.0986
TAACAGCA	0.127
ACGGTTAG	-0.312
GCTGAGGA	-0.123
AACAGCAC	0.0478
AGGAATGC	-0.118
AATCCGAG	0.0199
CTTTGACC	0.0538
TCTTTCAA	0.0473
GGCCTTGA	0.00166
CGGATTCA	-0.0792
GCATCGGA	0.0245
AATCTCTC	-0.0607
ACGTACCA	-0.107
CCCTCCTC	-0.161
ACCACTCG	0.0998
GTAGTGGA	0.152
AGTCTTTG	-0.25
AAATAAGT	0.11
ATAGCAGC	-0.104
ATACATAC	0.0623
ACCCTAGC	0.0587
AACACTGA	0.195
GCAGAGCC	-0.212

Sequence	PBM E-score
CTATTGCC	-0.0633
GGGCTAAC	-0.0739
AACTCATC	0.0905
CGGCGTGC	-0.125
AGAATCAA	0.103
GTAATCCA	0.0761
AACGGAAG	0.0569
CCGTTCAA	0.154
CACGCTAG	-0.0901
ACTCCATG	-0.101
CCGAAACC	-0.246
GTGCTACA	-0.208
CTTGGCCC	-0.224
GGATCCCC	-0.0824
CATCTGCA	0.098
AGCTTGTG	0.00263
GTTGCCCA	0.086
TAGCAGAA	0.0621
ATTTAGCA	0.012
AGGATGAG	-0.014
TTCGAAAA	0.164
AGGGAGAC	-0.0587
CCTCTGGC	-0.0616
ACGTGGAA	0.0714
AAGTAGTA	-0.0279

Sequence	PBM E-score
ATACTCCC	-0.0596
CGCGAATC	-0.0456
ACCAAGAA	0.144
AATAGTAT	0.17
CAATGAAG	0.00114
CTATGTTC	0.0921
AACAGAGA	0.0705
ATGGGGCC	-0.195
CCATCAAC	0.0217
AATAAGTC	-0.0943
AGACCACT	0.0184
GCCAGCGA	-0.0867
AACGGTTA	-0.165
AACTTATT	0.256
ACACTAGC	-0.00995
CGGACACG	-0.0788
AAGTATCC	0.0677
AACTGTAG	0.0915
CGGGGGTC	-0.342
AAATACAA	0.0802
GCCTGTAC	0.0536
CACTTCGC	-0.00344
GGGAACCC	0.0858
CATGAAAA	0.156
CCGGCTCG	-0.0875

As a working copy, some entries already given:
Sequence	PBM E-score
AACAGAGA	0.0705
ATGGGGCC	-0.195
CCATCAAC	0.0217
AATAAGTC	-0.0943
AGACCACT	0.0184
GCCAGCGA	-0.0867

Following part:

Sequence	PBM E-score
CGACGAGA	-0.0355
TACATCAA	-0.00852
CCGACTCG	-0.0799
AGATTTGG	-0.144
CACAACCA	0.0444
GAGTGGGC	-0.125
AATTCTGC	0.139
AAGCGGCG	-0.106
ACCTCACG	-0.0625
CTAATGCC	-0.0237
GGTATCGA	0.203
AACACAGG	0.0478
AGAGGATG	0.0356
CGTGAACC	-0.165
CTTCGGTA	-0.0647
AGTTCGAA	0.181
CTCTCAAC	-0.121
CACTGACC	-0.038
GTAACAAA	0.0273
GCCTCTTA	-0.00061
AGGCTAAG	-0.145
CGATTACC	0.0511
TCAGAGAA	-0.0852
CTTCGCTA	0.143
AGACAAAT	0.0467

Sequence	PBM E-score
CATATAAG	0.0579
ACCGTATC	-0.16
CTTCATAA	0.0697
AATACCGC	-0.0057
CCACTAGG	-0.0849
CATTGACC	0.0998
ACTTCCAT	-0.09
GGGTCCTA	0.191
GGTCGCAC	-0.0388
ATTTTCCA	0.0889
CGACAACA	0.157
CCAATAAG	-0.0823
GCTGTGCC	0.0262
GAGCTACC	0.00878
GAGAAGCC	0.0783
TGCCCGAA	0.0694
GAAGTCGC	0.0236
CCACGGAA	0.00928
GTATCCGA	-0.00528
ACGCCTTA	-0.196
AAAACGAG	-0.117
CGTCAGTA	-0.114
CCGGCGAG	0.0556
GAGGGAGC	-0.26
AGGTTTAA	-0.0352

Sequence	PBM E-score
TGATATAA	-0.183
ATCCCCTG	-0.0829
ACTACAGA	0.131
ACTGCTTG	-0.218
GCCTCTCC	-0.162
AATATTAG	0.256
GTCATCAC	-0.0469
ATCGCGCA	-0.004
GAACACAA	-0.0379
AAGCCATC	0.0293
ATGCTGAA	-0.0269
CAGCCGAC	-0.109
ATTAGTTA	0.268
AGACCTGA	-0.041
CACGTCCA	-0.177
TCCTTAGA	-0.274
AGACTATC	-0.136
ATTCAGTG	0.154
AGGCGTGC	-0.104
TAGGGAGA	-0.0425
AGCGCACG	0.0197
ACAGTAGG	-0.0181
GCTCCTAA	-0.137
AGGATCCC	0.0569
GTCGGAAC	-0.052

Sequence	PBM E-score
GCTCAGAA	-0.0105
GCAACTGA	0.216
GGTCAAAC	-0.068
CCCTCGCA	-0.0483
GGGATAAA	0.22
ACACGCAG	-0.0725
ACTTTAAG	0.243
CCTTTTGC	0.0394
GCATCCGC	-0.00657
ACGCCTGC	-0.132
ATCGGCCC	-0.0201
CCTCACTA	-0.0681
AAACAGAA	-0.0904
TATTAGGA	-0.0292
CTTCCAGA	-0.0795
AATTCCAA	0.0999
CGGCGTAA	0.0198
CTCATACA	0.0364
GCATGTGA	0.0613
GTCGCATA	0.141
ATGGGTCG	-0.00231
GACATGCA	-0.0301
CGACAGCA	0.0178
CGACCTTC	0.0897
AGGCCTTC	-0.163

4 records drawn at random from those above:
Sequence	PBM E-score
CCTCACTA	-0.0681
CGGCGTAA	0.0198
ACGCCTGC	-0.132
AGGCCTTC	-0.163

Next part.

Sequence	PBM E-score
ACCTGAGT	-0.114
AGATACAG	0.136
ACTGGCAG	-0.0924
GATCTCGA	0.148
AGGACGAT	0.0844
GGACGGTA	-0.197
CGCGCATA	0.116
CACGCGAC	0.00687
AGGAACCG	-0.107
ATCGGAAT	0.137
GCCTGTCA	-0.0935
ACATAAGG	0.0478
CCTCTGGA	-0.0587
AACTGACG	-0.11
CCGTTCGC	-0.11
AAGCAACC	0.0926
ACACCCTA	0.108
CACATAAC	-0.0329
CCGCAGCC	-0.107
